Results as given in the supplement of paper PMC10849652.
The list shows a part of the results.

Protein sequences, listed by entry. Tags and fused reporters are not part of them. Lines headed by an entry give the natural chain unless they say otherwise; changes in a name come on top.
UniProt Q9BXL7: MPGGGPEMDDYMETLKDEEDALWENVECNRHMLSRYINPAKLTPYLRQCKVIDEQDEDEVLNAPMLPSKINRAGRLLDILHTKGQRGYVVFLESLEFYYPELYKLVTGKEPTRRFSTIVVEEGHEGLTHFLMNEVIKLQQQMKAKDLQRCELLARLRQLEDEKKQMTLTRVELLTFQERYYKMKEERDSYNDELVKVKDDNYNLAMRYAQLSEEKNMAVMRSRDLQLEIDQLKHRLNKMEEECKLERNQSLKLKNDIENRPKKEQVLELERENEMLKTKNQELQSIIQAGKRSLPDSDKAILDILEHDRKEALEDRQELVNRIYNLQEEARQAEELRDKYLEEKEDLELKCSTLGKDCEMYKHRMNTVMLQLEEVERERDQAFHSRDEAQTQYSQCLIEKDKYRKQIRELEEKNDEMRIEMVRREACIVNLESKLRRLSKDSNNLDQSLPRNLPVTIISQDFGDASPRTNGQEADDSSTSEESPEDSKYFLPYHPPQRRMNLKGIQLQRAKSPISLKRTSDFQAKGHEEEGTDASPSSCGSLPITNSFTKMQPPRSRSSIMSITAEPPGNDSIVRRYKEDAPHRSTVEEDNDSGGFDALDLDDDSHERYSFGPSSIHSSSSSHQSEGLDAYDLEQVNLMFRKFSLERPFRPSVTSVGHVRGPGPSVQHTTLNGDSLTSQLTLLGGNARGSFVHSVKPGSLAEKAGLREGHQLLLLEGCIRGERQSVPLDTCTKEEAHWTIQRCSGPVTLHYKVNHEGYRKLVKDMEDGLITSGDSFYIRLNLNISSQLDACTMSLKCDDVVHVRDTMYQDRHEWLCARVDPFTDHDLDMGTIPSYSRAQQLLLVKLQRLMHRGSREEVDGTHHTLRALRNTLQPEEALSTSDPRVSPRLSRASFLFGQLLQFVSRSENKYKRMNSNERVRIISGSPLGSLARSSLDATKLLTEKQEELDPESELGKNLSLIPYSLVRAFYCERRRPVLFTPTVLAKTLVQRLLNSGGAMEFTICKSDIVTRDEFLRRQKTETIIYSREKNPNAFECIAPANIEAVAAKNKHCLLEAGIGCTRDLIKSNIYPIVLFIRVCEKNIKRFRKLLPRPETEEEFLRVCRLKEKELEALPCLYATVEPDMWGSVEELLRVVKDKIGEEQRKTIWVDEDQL
UniProt Q96LT7: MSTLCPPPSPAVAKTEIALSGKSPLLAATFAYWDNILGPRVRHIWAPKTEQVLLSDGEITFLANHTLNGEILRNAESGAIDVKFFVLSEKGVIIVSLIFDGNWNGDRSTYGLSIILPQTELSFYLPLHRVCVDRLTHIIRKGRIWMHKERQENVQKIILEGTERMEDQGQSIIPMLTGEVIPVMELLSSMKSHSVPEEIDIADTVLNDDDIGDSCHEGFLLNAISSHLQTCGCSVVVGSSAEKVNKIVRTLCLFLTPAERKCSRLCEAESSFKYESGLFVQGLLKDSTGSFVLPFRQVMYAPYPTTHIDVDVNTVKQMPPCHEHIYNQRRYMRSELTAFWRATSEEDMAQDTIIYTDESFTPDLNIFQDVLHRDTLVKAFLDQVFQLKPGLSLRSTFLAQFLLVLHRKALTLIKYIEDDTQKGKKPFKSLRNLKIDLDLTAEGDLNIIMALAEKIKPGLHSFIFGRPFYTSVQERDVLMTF
UniProt P04003: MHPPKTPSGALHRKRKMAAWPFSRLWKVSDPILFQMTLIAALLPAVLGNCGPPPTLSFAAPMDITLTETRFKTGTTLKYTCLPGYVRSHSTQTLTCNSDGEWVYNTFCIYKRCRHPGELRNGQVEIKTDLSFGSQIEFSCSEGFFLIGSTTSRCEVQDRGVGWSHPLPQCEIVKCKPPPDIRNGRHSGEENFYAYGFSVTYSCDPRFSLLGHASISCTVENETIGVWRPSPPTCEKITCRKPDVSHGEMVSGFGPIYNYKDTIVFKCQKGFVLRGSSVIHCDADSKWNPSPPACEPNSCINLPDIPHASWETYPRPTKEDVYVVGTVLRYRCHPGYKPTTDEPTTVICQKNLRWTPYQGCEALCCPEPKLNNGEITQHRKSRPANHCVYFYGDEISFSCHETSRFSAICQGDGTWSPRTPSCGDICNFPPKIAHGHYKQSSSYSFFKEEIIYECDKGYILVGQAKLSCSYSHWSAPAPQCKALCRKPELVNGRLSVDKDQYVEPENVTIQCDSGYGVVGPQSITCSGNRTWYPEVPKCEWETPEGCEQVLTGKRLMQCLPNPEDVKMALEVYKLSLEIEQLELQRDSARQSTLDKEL
UniProt Q9BRJ6: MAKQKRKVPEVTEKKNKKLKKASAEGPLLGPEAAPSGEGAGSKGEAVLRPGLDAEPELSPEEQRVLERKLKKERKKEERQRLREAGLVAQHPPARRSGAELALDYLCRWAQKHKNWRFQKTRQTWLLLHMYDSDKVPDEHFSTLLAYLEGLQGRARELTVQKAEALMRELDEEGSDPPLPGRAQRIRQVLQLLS
UniProt O95873: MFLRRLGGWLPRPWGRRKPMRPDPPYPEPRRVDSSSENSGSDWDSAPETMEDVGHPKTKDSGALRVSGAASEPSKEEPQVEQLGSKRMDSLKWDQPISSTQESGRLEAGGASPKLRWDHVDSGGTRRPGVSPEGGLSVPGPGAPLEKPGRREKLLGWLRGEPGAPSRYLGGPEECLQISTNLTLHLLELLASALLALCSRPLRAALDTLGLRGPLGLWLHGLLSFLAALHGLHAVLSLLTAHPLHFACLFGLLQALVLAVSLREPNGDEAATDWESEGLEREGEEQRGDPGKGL
UniProt Q13901: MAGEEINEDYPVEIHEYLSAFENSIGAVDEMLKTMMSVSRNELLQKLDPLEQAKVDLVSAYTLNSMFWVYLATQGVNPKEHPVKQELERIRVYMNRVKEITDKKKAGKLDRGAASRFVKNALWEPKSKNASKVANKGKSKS
UniProt Q01518, whole entry, looked up: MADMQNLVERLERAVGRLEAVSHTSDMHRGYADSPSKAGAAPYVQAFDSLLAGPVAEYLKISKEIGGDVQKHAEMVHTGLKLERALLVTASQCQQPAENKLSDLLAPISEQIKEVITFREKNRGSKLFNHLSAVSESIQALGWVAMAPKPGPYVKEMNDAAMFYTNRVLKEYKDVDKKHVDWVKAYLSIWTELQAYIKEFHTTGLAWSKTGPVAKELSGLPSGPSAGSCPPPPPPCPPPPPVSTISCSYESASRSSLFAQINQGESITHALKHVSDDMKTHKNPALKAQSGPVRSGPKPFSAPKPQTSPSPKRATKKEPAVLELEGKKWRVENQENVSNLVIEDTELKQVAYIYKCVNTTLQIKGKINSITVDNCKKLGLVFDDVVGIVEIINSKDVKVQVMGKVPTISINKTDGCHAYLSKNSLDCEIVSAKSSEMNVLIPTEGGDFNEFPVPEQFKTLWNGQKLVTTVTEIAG
UniProt Q9H425: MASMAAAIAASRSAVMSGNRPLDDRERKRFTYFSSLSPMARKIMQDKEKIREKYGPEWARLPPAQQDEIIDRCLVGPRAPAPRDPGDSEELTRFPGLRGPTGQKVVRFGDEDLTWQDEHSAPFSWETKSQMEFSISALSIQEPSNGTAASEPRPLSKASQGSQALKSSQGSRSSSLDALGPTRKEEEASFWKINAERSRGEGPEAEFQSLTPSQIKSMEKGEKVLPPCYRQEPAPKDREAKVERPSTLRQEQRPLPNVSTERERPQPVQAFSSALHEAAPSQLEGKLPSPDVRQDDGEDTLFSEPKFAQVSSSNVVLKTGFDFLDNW
UniProt Q96N11, whole entry, looked up: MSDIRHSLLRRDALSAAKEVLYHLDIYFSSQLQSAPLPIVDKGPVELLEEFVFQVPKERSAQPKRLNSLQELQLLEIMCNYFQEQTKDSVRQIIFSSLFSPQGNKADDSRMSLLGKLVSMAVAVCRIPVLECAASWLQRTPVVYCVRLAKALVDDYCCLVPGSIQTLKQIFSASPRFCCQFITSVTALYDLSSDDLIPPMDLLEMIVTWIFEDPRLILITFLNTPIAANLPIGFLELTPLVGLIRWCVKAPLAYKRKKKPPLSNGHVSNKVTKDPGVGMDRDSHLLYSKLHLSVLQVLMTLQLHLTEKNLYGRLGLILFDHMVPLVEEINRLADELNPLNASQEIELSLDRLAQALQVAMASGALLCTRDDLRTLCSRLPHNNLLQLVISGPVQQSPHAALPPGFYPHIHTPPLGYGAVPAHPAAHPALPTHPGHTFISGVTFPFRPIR
UniProt P27797, whole entry, looked up: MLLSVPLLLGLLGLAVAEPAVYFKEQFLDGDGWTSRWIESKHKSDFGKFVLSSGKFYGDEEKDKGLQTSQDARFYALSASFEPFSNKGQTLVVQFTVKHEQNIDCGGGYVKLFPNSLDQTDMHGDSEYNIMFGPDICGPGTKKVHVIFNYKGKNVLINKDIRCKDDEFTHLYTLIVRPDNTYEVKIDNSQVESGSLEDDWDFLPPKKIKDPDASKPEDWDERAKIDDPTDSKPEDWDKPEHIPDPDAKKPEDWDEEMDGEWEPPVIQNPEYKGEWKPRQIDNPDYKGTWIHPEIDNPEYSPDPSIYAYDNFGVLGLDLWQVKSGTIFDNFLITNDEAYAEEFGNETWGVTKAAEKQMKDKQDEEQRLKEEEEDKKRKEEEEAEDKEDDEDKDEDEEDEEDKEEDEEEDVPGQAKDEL
UniProt Q32NC0: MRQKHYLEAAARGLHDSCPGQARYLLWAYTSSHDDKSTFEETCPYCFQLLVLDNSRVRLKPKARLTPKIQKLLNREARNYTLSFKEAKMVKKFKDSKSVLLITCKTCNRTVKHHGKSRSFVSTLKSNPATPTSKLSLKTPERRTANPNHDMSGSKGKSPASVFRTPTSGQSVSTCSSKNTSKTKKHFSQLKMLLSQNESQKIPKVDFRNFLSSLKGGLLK
UniProt Q2NKX9: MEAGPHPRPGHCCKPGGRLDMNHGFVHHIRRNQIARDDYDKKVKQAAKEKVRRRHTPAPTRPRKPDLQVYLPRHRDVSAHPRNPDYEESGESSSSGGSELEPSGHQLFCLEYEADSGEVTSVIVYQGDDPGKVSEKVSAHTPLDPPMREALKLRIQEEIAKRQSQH
UniProt Q9H3J6: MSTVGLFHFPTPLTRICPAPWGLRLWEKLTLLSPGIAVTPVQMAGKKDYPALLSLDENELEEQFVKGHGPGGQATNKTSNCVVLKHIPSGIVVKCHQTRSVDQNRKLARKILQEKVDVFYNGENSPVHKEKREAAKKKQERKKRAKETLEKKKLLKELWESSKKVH
UniProt Q8TCD1: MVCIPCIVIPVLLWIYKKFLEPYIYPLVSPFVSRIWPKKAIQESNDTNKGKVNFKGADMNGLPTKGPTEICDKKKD
UniProt Q49AR2: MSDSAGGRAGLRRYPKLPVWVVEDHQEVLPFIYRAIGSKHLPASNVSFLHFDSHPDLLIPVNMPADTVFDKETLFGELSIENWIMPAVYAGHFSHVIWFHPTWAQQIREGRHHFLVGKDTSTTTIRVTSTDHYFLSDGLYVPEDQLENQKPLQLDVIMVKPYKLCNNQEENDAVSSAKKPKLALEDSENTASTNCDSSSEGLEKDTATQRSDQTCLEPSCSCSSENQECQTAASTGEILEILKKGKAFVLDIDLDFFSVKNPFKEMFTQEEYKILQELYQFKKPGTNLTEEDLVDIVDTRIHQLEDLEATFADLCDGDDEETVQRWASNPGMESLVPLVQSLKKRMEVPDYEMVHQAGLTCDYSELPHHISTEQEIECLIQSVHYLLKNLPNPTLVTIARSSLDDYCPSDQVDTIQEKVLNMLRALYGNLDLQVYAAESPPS
UniProt P07384: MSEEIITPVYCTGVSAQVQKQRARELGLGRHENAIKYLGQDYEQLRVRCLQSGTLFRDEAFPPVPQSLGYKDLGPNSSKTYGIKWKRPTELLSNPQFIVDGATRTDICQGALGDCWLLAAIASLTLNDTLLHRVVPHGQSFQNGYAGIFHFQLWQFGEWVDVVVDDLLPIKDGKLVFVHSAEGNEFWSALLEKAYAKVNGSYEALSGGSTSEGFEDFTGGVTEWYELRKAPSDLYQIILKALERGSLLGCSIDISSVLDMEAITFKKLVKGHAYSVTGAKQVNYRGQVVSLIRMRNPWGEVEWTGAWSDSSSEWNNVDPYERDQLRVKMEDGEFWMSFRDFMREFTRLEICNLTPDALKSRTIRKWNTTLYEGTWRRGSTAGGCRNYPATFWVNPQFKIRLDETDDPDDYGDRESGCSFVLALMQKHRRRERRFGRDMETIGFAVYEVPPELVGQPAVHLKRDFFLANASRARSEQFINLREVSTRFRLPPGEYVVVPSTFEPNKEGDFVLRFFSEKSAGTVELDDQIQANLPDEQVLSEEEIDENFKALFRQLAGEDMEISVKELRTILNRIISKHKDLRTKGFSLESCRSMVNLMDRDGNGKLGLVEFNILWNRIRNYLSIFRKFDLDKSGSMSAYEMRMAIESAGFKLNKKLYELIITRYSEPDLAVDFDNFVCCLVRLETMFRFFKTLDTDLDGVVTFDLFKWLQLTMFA
UniProt P47756, whole entry, looked up: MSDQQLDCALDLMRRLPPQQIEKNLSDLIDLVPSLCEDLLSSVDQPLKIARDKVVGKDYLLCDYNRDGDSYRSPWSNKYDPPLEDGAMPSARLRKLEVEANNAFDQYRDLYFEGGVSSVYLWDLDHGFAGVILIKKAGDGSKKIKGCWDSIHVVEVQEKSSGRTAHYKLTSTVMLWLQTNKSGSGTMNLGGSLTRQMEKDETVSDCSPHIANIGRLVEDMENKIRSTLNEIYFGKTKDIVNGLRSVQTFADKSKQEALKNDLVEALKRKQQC

How the values were obtained:
Experiment in all cases: log2 fold change, soluble protein after heating vs DMSO (PISA); higher = thermal stabilisation; K562 lysate, 10 uM; active = over 0.2 and 3.5 SD of the protein, either way, in both replicates (recomputed)
[1] = compound: Cc1cn(-c2cc(NC(=O)c3ccc(C)c(Nc4nccc(-c5cccnc5)n4)c3)cc(C(F)(F)F)c2)cn1 [nilotinib]
How it was run: (§1)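 Thermal stability, expressed as log-two fold change relative to solvent controls, is given from duplicates. Crude K562 extract in PBS pH 7.4 with 1 mM MgCl2, at 1 mg/mL protein, was treated with 10 μM compound for 30 min and heated in aliquots for 3 min across 48°C-58°C. After pooling, adjustment to 0.5% NP-40 at 4°C and centrifugation at 21,000xg for 90 min, supernatant protein was measured by TMTpro 16plex LC-MS/MS with channel sums equalised.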

[2] = compound: Cc1nc(Nc2n[nH]c3c2CN(C(=O)N[C@H](CN(C)C)c2ccccc2)C3(C)C)c2sccc2n1
How it was run: as §1

[3] = compound: Cc1nc(Nc2ncc(C(=O)Nc3c(C)cccc3Cl)s2)cc(N2CCN(CCO)CC2)n1 [dasatinib]
How it was run: as §1

[4] = compound: Cc1ncc(-c2ccnc(Nc3ccc(S(C)(=O)=O)cc3)n2)n1C(C)C
How it was run: as §1

[5] = compound: Cn1cc(-c2ccc3c(c2)CCN3C(=O)Cc2cccc(C(F)(F)F)c2)c2c(N)ncnc21
How it was run: as §1

[6] = compound: Cn1cc(CNCC2CCN(c3ncc(C(=O)NO)cn3)CC2)c2ccccc21 [quisinostat]
How it was run: as §1

[7] = compound: Cn1cncc1[C@@](N)(c1ccc(Cl)cc1)c1ccc2c(c1)c(-c1cccc(Cl)c1)cc(=O)n2C [tipifarnib]
How it was run: as §1

[8] = compound: NC(=O)Nc1cc(-c2cccc(F)c2)sc1C(=O)N[C@H]1CCCNC1
How it was run: as §1

[9] = compound: NC(=O)c1cnc(N[C@@H]2CCCC[C@@H]2N)nc1Nc1cccc(-n2nccn2)c1
How it was run: as §1

[10] = compound: NC1(c2ccc(-c3nc4ccn5c(=O)[nH]nc5c4cc3-c3ccccc3)cc2)CCC1
How it was run: as §1

Measured: log2 fold change

CALU isoform 3 (UniProt O43852)
inactive: [1] -0.012 | [2] -0.004 | [3] 0.029 | [4] 0.007 | [5] -0.028 | [6] 0 | [7] -0.002 | [8] -0.017 | [9] 0 | [10] -0.022

CALU isoform 4 (UniProt O43852)
inactive: [1] -0.014 | [2] 0.011 | [3] 0.051 | [4] 0.015 | [5] 0.043 | [6] -0.066 | [7] 0.054 | [8] 0.017 | [9] -0.003 | [10] 0.013

CARD11 (UniProt Q9BXL7)
inactive: [1] -0.047 | [2] 0.04 | [3] -0.053 | [4] 0.043 | [5] 0.004 | [6] -0.031 | [7] -0.015 | [8] 0.025 | [9] 0.048 | [10] 0.009

C17orf75 (UniProt Q9HAS0)
inactive: [1] -0.036 | [2] 0.006 | [3] 0.046 | [4] 0 | [5] 0.04 | [6] -0.062 | [7] -0.071 | [8] -0.005 | [9] -0.019 | [10] 0.002

C1orf109 (UniProt Q9NX04)
inactive: [1] -0.092 | [2] -0.053 | [3] -0.108 | [4] 0.02 | [5] 0.229 | [6] -0.03 | [7] -0.008 | [8] -0.034 | [9] 0.081 | [10] -0.325

C9orf72 (UniProt Q96LT7)
inactive: [1] 0.017 | [2] -0.063 | [3] -0.025 | [4] 0.073 | [5] 0.001 | [6] -0.034 | [7] -0.065 | [8] -0.03 | [9] 0.015 | [10] -0.014

C4BPA (UniProt P04003)
inactive: [1] 0.042 | [2] 0.036 | [3] -0.12 | [4] -0.047 | [5] -0.259 | [6] -0.129 | [7] -0.009 | [8] -0.003 | [9] 0.059 | [10] 0.044

C7orf50 (UniProt Q9BRJ6)
inactive: [1] -0.028 | [2] -0.023 | [3] -0.043 | [4] -0.051 | [5] 0.019 | [6] -0.148 | [7] 0.022 | [8] 0.034 | [9] 0.008 | [10] -0.008

C6orf47 (UniProt O95873)
inactive: [1] 0.028 | [2] 0.062 | [3] -0.009 | [4] 0.048 | [5] -0.004 | [6] -0.04 | [7] 0.028 | [8] -0.011 | [9] 0.022 | [10] -0.072

C1D (UniProt Q13901)
inactive: [1] -0.003 | [2] -0.036 | [3] -0.001 | [4] 0.021 | [5] -0.024 | [6] -0.018 | [7] 0.021 | [8] 0.028 | [9] 0.052 | [10] -0.013

CAPG (UniProt P40121)
inactive: [1] -0.036 | [2] 0.019 | [3] -0.016 | [4] 0.056 | [5] -0.028 | [6] 0.014 | [7] 0.018 | [8] -0.004 | [9] -0.014 | [10] -0.013

Pulled one by one from above (2):
C7orf50 (UniProt Q9BRJ6)
inactive: [1] -0.028 | [2] -0.023 | [3] -0.043 | [4] -0.051 | [5] 0.019 | [6] -0.148 | [7] 0.022 | [8] 0.034 | [9] 0.008 | [10] -0.008

C1orf109 (UniProt Q9NX04)
inactive: [1] -0.092 | [2] -0.053 | [3] -0.108 | [4] 0.02 | [5] 0.229 | [6] -0.03 | [7] -0.008 | [8] -0.034 | [9] 0.081 | [10] -0.325

More entries follow.

CAP1 (UniProt Q01518)
inactive: [1] 0.015 | [2] -0.011 | [3] -0.029 | [4] 0.004 | [5] -0.027 | [6] 0.014 | [7] 0.018 | [8] -0.008 | [9] -0.028 | [10] -0.01

C1orf198 (UniProt Q9H425)
inactive: [1] 0.103 | [2] 0.261 | [3] 0.133 | [4] -0.084 | [5] 0.005 | [6] 0.013 | [7] -0.031 | [8] 0.009 | [9] -0.029 | [10] -0.021

C7orf26 (UniProt Q96N11)
inactive: [1] 0.133 | [2] 0.142 | [3] -0.051 | [4] -0.062 | [5] -0.06 | [6] -0.003 | [7] 0.128 | [8] 0.036 | [9] -0.01 | [10] 0.008

CALR (UniProt P27797)
inactive: [1] 0.009 | [2] -0.009 | [3] 0.012 | [4] -0.01 | [5] 0.018 | [6] 0.051 | [7] 0.005 | [8] -0.01 | [9] 0.007 | [10] 0.005

C18orf21 (UniProt Q32NC0)
inactive: [1] -0.025 | [2] 0.024 | [3] 0.059 | [4] 0.158 | [5] -0.018 | [6] -0.018 | [7] 0.008 | [8] 0.041 | [9] -0.032 | [10] -0.019

CAMLG (UniProt P49069)
inactive: [1] 0.048 | [2] -0.082 | [3] 0.017 | [4] -0.069 | [5] 0.064 | [6] 0.01 | [7] -0.084 | [8] 0.005 | [9] -0.009 | [10] 0.046

BUB3 (UniProt O43684)
inactive: [1] 0.005 | [2] -0.041 | [3] -0.012 | [4] -0.02 | [5] -0.005 | [6] -0.011 | [7] 0.008 | [8] 0.016 | [9] -0.005 | [10] 0.03

C2orf68 (UniProt Q2NKX9)
inactive: [1] 0.075 | [2] -0.038 | [3] 0.076 | [4] -0.112 | [5] 0.035 | [6] -0.027 | [7] 0.103 | [8] -0.046 | [9] -0.034 | [10] 0.026

C12orf65 (UniProt Q9H3J6)
inactive: [1] -0.022 | [2] 0.046 | [3] 0 | [4] 0.027 | [5] 0.021 | [6] -0.022 | [7] 0.029 | [8] -0.023 | [9] 0.023 | [10] 0.03

CAPZA2 (UniProt P47755)
inactive: [1] -0.002 | [2] -0.001 | [3] 0.002 | [4] 0 | [5] -0.043 | [6] -0.002 | [7] -0.014 | [8] -0.004 | [9] -0.019 | [10] 0.008

C18orf32 (UniProt Q8TCD1)
inactive: [1] 0.058 | [2] -0.078 | [3] -0.026 | [4] 0.072 | [5] 0.167 | [6] 0.027 | [7] 0.093 | [8] -0.11 | [9] -0.084 | [10] 0.062

C5orf22 (UniProt Q49AR2)
inactive: [1] -0.002 | [2] -0.017 | [3] 0.035 | [4] -0.003 | [5] -0.009 | [6] 0.006 | [7] 0.008 | [8] 0.006 | [9] -0.006 | [10] -0.003

CAPN1 (UniProt P07384)
inactive: [1] -0.005 | [2] 0.013 | [3] 0.027 | [4] 0.004 | [5] 0.02 | [6] -0.038 | [7] -0.025 | [8] -0.021 | [9] -0.015 | [10] -0.015

CAPZA1 (UniProt P52907)
inactive: [1] 0.026 | [2] 0.001 | [3] 0.004 | [4] 0.003 | [5] -0.051 | [6] -0.017 | [7] -0.012 | [8] 0.025 | [9] -0.014 | [10] 0.016

CAPZB (UniProt P47756)
inactive: [1] 0.005 | [2] -0.018 | [3] 0.028 | [4] 0.013 | [5] -0.015 | [6] 0.035 | [7] 0.019 | [8] -0.024 | [9] -0.015 | [10] -0.01

BYSL (UniProt Q13895)
inactive: [1] -0.013 | [2] -0.017 | [3] -0.017 | [4] 0.002 | [5] 0.008 | [6] 0.04 | [7] 0.023 | [8] 0.013 | [9] 0.037 | [10] 0.034

CAPNS1 (UniProt P04632)
inactive: [1] -0.007 | [2] 0.027 | [3] 0.035 | [4] -0.002 | [5] -0.014 | [6] 0.078 | [7] 0.017 | [8] -0.077 | [9] -0.05 | [10] 0.01
